The test has as its target T1, GST-hMusTRD1α1944aa (human) (UniProt Q9UHL9).
T1 sequence: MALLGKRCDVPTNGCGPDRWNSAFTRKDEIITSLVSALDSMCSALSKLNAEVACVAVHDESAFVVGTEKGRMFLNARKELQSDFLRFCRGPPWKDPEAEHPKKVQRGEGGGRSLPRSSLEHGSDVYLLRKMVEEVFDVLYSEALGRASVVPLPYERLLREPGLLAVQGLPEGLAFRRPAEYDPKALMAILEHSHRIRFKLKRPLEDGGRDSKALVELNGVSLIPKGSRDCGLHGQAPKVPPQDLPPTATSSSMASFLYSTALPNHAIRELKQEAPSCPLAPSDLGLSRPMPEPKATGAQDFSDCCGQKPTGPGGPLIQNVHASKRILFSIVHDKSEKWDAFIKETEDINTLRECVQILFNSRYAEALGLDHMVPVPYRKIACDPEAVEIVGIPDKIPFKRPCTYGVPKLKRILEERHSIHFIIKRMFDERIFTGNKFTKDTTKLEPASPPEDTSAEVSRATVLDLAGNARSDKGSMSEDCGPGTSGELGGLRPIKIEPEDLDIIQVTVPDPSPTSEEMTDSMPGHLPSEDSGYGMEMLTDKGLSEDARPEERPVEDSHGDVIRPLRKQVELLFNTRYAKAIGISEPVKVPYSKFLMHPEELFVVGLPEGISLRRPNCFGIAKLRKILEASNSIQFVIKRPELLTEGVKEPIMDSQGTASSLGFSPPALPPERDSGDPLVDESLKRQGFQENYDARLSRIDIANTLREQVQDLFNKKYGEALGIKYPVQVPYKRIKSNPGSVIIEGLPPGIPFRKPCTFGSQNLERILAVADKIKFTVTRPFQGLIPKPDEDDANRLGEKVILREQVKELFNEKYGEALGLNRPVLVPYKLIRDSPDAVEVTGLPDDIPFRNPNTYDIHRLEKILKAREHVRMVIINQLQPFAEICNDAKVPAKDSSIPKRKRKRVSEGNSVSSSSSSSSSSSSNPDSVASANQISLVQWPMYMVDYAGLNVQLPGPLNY
Briefly: GST pull-down, phosphorimaging (data not shown).

By UniProt entry, the sequences of proteins in these tests, tags left out.
UniProt Q8CFN5: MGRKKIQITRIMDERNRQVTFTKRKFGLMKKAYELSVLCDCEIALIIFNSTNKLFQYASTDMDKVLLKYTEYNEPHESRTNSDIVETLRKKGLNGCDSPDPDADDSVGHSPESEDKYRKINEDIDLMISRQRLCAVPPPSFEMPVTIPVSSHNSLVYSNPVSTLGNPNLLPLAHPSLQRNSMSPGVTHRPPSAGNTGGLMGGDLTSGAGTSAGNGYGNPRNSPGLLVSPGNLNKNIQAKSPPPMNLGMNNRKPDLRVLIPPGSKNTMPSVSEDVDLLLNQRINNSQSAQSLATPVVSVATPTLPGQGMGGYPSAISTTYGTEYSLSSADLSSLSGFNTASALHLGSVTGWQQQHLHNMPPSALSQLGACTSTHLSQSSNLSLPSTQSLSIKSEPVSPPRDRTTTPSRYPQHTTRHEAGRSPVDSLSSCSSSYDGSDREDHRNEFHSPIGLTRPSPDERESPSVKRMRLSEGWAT

No constants are given. Whether binding was seen depends on the method and setting. In cells and extracts the contact can be indirect. Some binding calls cover weakened binding; strength is not graded here. Tags and fused reporters may be left off the sequences shown.

In the case of “MEF2C (pcDNAMEF2C, mouse MEF2C cDNA) (from UniProt Q8CFN5 1-474)”, the binding result is on record as “binds”.

These data come from patent US20050032696A1.
